Data as given in PubChem BioAssay AID602196 (INSERM, 2012)
This is an unselected part of about 23,000 reagents. 455 of them (2%) were called active. 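Active includes both protection and sensitisation; some change values fall well beyond the stated -50 to +50 range.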 The numbers tell different reagents against one gene apart. Not all columns of the deposit are shown. Not given: the amount of reagent.

Screen: 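Modifiers of cisplatin sensitivity in A549 cells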
Cell system: human A549 lung cancer cells
Reagents: siRNA pair against human genes
Duration: 48 h transfection before cisplatin; time from cisplatin to read-out not stated
Conditions: cisplatin at a dose killing half of control-siRNA cells; exact dose and duration not given
Read-out: 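Cisplatin cell death as a shift from the 50% death seen with control siRNA; siRNAs toxic or growth-blocking alone scored 0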
Scale: two-siRNA summed score (-2 to +2): higher = both siRNAs protect from cisplatin killing; -2 means both sensitise
Rule for the call: 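Each siRNA scores 0 if harmful alone by LDH or WST-1, otherwise +1 if it reduces and -1 if it increases cisplatin killing; a gene is active when both siRNAs agree (sum +2 or -2)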
Meaning of the calls: active = both siRNAs shift cisplatin killing the same way; inactive = no consistent shift, or siRNA harmful alone

no.	gene	reagent no.	two-siRNA summed score (-2 to +2)	outcome
1	NDUFS1	1	0	inactive
2	LOC442499	1	0	inactive
3	LINC01549	1	-1	inactive
4	C11orf68	1	0	inactive
5	NUDT12	1	0	inactive
6	SOCS7	1	0	inactive
7	NUDT22	1	0	inactive
8	LINC00311	1	0	inactive
9	ADGRL2	1	1	inactive
10	HNRNPDL	1	0	inactive
11	LOC400053	1	1	inactive
12	HAT1	1	0	inactive
13	ZNF646	1	1	inactive
14	IGHV1OR15-1	1	1	inactive
15	DNAJC21	1	0	inactive
16	DNAJC21	2	1	inactive
17	SIGLEC15	1	-1	inactive
18	LOC442012	1	0	inactive
19	LOC285679	1	0	inactive
20	MCRIP1	1	1	inactive
21	MYZAP	1	0	inactive
22	NODAL	1	0	inactive
23	TLR2	1	0	inactive
24	ESYT2	1	0	inactive
25	PKNOX1	1	0	inactive
26	LONRF2	1	1	inactive
27	NLGN4Y	1	0	inactive
28	SLC15A3	1	0	inactive
29	LOC389742	1	0	inactive
30	LOC441098 (retired record)	1	1	inactive
31	ZNF273	1	1	inactive
32	ZNF273	2	1	inactive
33	DCAF11	1	0	inactive
34	LATS2	1	1	inactive
35	DUSP15	1	0	inactive
36	CAMK2B	1	0	inactive
37	LOC441371	1	1	inactive
38	UQCC2	1	0	inactive
39	TBKBP1	1	1	inactive
40	NEK6	1	1	inactive
41	CCDC69	1	0	inactive
42	SLCO4C1	1	0	inactive
43	GNL1	1	0	inactive
44	LIMD1	1	1	inactive
45	BNIP2	1	1	inactive
46	PML	1	-1	inactive
47	SPACA5	1	0	inactive
48	HSP90B1	1	0	inactive
49	LILRB2	1	0	inactive
50	PISD	1	0	inactive
51	TMEM63C	1	0	inactive
52	B3GNT7	1	0	inactive
53	LYG2	1	0	inactive
54	GRAMD2B	1	0	inactive
55	LOC440733	1	0	inactive
56	USP2	1	0	inactive
57	AASDH	1	0	inactive

7 of these entries, reformatted.
{"gene": "UQCC2", "reagent no.": 1, "two-siRNA summed score (-2 to +2)": 0, "outcome": "inactive"}
{"gene": "TBKBP1", "reagent no.": 1, "two-siRNA summed score (-2 to +2)": 1, "outcome": "inactive"}
{"gene": "NEK6", "reagent no.": 1, "two-siRNA summed score (-2 to +2)": 1, "outcome": "inactive"}
{"gene": "CCDC69", "reagent no.": 1, "two-siRNA summed score (-2 to +2)": 0, "outcome": "inactive"}
{"gene": "SLCO4C1", "reagent no.": 1, "two-siRNA summed score (-2 to +2)": 0, "outcome": "inactive"}
{"gene": "GNL1", "reagent no.": 1, "two-siRNA summed score (-2 to +2)": 0, "outcome": "inactive"}
{"gene": "LIMD1", "reagent no.": 1, "two-siRNA summed score (-2 to +2)": 1, "outcome": "inactive"}
